The text below walks through data of PubChem BioAssay AID493014 (National Center for Advancing Translational Sciences (NCATS), 2011).

SMILES strings stand for the structures. The list shows a part of the results. Shown are side measurements of this screen, not its main read-out; they come without a call. Compounds called inactive in the main read-out are mostly missing here. The note in brackets gives the kind of curve behind each potency; many fits are weak.

By AC50 is commonly meant the concentration giving half of the maximal activity seen.

The experiment can be described thus: qHTS Assay to Find Inhibitors of Chronic Active B-Cell Receptor Signaling. Conditions: ABC-DLBCL IkBa-CBG/CBR reporter, luminescence ratio (green luciferase fused to IkBa over red control in TMD8 lymphoma cells), 4 h. The essentials:
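Concentration-response series (up to 46 uM) were applied to TMD8 dual-reporter cells for 4 h at 37C with doxycycline. Green/red ratio, after filter-overlap correction, defined %Activity; red signal alone was normalised to basal cells and zero luminescence.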

The mark [1] stands for this setting: measured here: CBR red luminescence, cell number.
[2] abbreviates: measured here: IkBa-CBG green luminescence.

As to `Cn1cccc1/C=C1\SC(=Nc2cccc(O)c2)NC1=O`, under setting [1], the AC50 was 14.1 µM [falling, partial curve].
The same measure, in the same setting: in the case of `Cc1noc(C)c1COc1ccc(C(=O)NCCOc2ccccc2)cc1` it was 0.517 µM [rising, full curve, poor fit]; in that of `COc1ccc(OC)c(/C=N/NC(=O)c2[nH]ncc2Br)c1`, 1.26 µM [falling, full curve]; in that of `COC(=O)c1ccccc1NC(=O)COc1ccc2c(c1)OCO2`, 0.631 µM [falling, partial curve, poor fit].
For `CC1CCc2nn(CC(=O)NCCCN3CCOCC3)cc2C1` (configuration not stated), the AC50 under setting [1] is 3.66 µM [rising, partial curve, poor fit].
On the same count and under the same terms, in the case of `CCc1nc(N2CCN(C(=O)c3ccco3)CC2)c2c3c(sc2n1)CCCC3` it was 11.2 µM [falling, partial curve, poor fit]; in that of `CCCCc1cc(=O)oc2cc(C)cc(OCC(=O)Nc3ccccn3)c12`, 12.6 µM [falling, single point].
On the same count and under the same terms, in the case of `Cc1nc([N+](=O)[O-])cn1CC(O)c1ccc(Cl)cc1` (configuration not stated) it was 0.562 µM [falling, partial curve, poor fit]; in that of `COc1cc(C(=O)N(C)Cc2cccc(OC)c2OC)ccc1OCC(=O)Nc1cccc(C(F)(F)F)c1`, 0.184 µM [rising, full curve, poor fit]; in that of `CC(C)NC(=O)COc1coc(CN2CCN(C(=O)c3ccco3)CC2)cc1=O`, 5.8 µM [rising, full curve, poor fit].
For the molecule `O=C(CSc1nnc(-c2ccc3c(c2)OCO3)o1)Nc1c(F)cccc1F`, the AC50 under setting [1] was 11.6 µM [falling, partial curve, poor fit].
Still for that read-out and setting: with `O=C(NC(NNc1ccc([N+](=O)[O-])cc1)(C(F)(F)F)C(F)(F)F)c1ccc(Cl)cc1` the figure was 20.6 µM [falling, single point]; with `CCOc1ccc(OCC(=O)c2c(O)c3ccccc3oc2=O)cc1`, 3.16 µM [falling, partial curve]; with `O=C1c2ccccc2C(Nc2cccnc2)N1Cc1ccccc1Cl` (configuration not stated), 32.6 µM [falling, single point].
Still for that read-out and setting: with `O=C(O)Cn1nc(-c2ccccc2)oc1=O` the figure was 29.1 µM [falling, partial curve, poor fit].
On the same count and under the same terms, with `CCCC(C)NC(=O)c1ccc2[nH]c3c(c2c1)CC(C)CC3` (configuration not stated) the figure was 12.6 µM [falling, partial curve, poor fit]; with `CC1(C)C(=O)Nc2ccccc2N1C(=O)COC(=O)CSc1ccc(F)cc1`, 29.1 µM [falling, single point].
Turning to `COc1cc(/C=C2\SC(=O)NC2=O)ccc1OCC(=O)N1CCOCC1`, under setting [1], the AC50 is 2.59 µM [rising, full curve, poor fit].
On the same count and under the same terms, with `COc1ccc(C(=O)c2sc(Nc3ccc(NC(C)=O)cc3)nc2C)cc1` the figure was 25.1 µM [falling, single point]; with `CCOC(=O)C1CCN(S(=O)(=O)c2ccc3c(c2)CC(=O)N3C)CC1`, 35.5 µM [falling, single point].
Still for that read-out and setting: with `CSc1cccc(NC(=O)/C=C/c2ccco2)c1` the figure was 10 µM [falling, partial curve, poor fit]; with `Cc1ccc(Nc2nc(-c3ccc(S(=O)(=O)N4CCCC4)cc3)cs2)cc1C`, 7.94 µM [falling, partial curve, poor fit].
`CCOC(=O)C#CC(CCc1ccccc1)OS(N)(=O)=O` (configuration not stated): under setting [1], the AC50 was 22.4 µM [falling, single point].
`COC(=O)CSCC(=O)Nc1nnc(-c2cccc(C)c2)s1`: the AC50 under setting [1] is 8.91 µM [falling, partial curve].
The same measure, in the same setting: in the case of `CCN(CC)C(=O)c1sc(NC(=O)c2cccs2)c(C#N)c1C` it was 3.55 µM [falling, partial curve, poor fit].
For `Cc1cccc(CSC2=CS(=O)(=O)c3ccccc3N2)c1`, the AC50 under setting [1] was 0.126 µM [falling, full curve, poor fit].
On the same count and under the same terms, with `COc1ccc(Nc2nc(N3CCN(S(=O)(=O)N(C)C)CC3)nc3ccccc23)cc1` the figure was 1.12 µM [rising, partial curve, poor fit].
On the same count and under the same terms, in the case of `CC(O)CNCc1cccc2ccccc12` (configuration not stated) it was 0.00461 µM [rising, full curve, poor fit]; in that of `O=[N+]([O-])c1cc(C(F)(F)F)ccc1-n1nnc2ccccc21`, 4.11 µM [rising, full curve, poor fit]; in that of `O=C(NCc1ccco1)c1cccn2c(=O)c3c4c(sc3nc12)CCCC4`, 15.8 µM [falling, partial curve, poor fit].
With `O=C(O)CC/C(=N/Nc1ccc([N+](=O)[O-])cc1)C(=O)O`, under setting [1], the AC50 is 11.2 µM [rising, partial curve, poor fit].
Regarding `COc1ccc(N2C3=C(CC4=C2CC(C)(C)CC4=O)C(=O)CC(C)(C)C3)cc1`, the AC50 under setting [2] was 35.5 µM [rising, partial curve, poor fit].
For `COc1ccc(C(c2nnnn2C2CCCCC2)N2CCN(C)CC2)c(OC)c1` (configuration not stated), under setting [1], the AC50 was 35.5 µM [falling, single point].
On the same count and under the same terms, with `CC(c1ccccc1)N(CCC(c1ccccc1)C1CCOC(C)(C)C1)C(=O)c1ccco1` (configuration not stated) the figure was 13 µM [falling, partial curve].
Same read-out and setting: in the case of `N#Cc1c(-c2ccccc2)cc(-c2cccs2)nc1SCC(=O)O` it was 0.708 µM [falling, full curve, poor fit]; in that of `COc1ccccc1OCc1nnc(SCC(=O)Nc2ccc(C)cc2)n1C`, 10 µM [rising, partial curve, poor fit].
Regarding `COc1ccc2ccc(OCC(=O)N3c4ccccc4NC(=O)CC3C)cc2c1` (configuration not stated), the AC50 under setting [1] was 6.51 µM [falling, partial curve, poor fit].
On the same count and under the same terms, with `Cc1sc2nc(C3CC3)nc(NCCNS(=O)(=O)c3ccccc3)c2c1C` the figure was 16.4 µM [falling, single point]; with `COC(=O)c1c(NC(=O)CC2Nc3ccccc3NC2=O)sc(C)c1C` (configuration not stated), 1.26 µM [falling, full curve, poor fit]; with `CCOC(=O)c1c(NC(=O)CSc2nc3c(c(=O)n(C)c(=O)n3C)n2C(C)C)sc(C)c1C`, 0.366 µM [rising, full curve, poor fit].
Turning to `S=C(Nc1ccccc1)c1ccccn1`, the AC50 under setting [1] is 25.9 µM [rising, single point] and the AC50 under setting [2] is 6.31 µM [falling, single point].
With `O=C(N/N=C/c1cc2c(cc1Br)OCO2)c1ccccn1`, under setting [1], the AC50 is 11.2 µM [falling, partial curve, poor fit].
As for `Cc1cc(C)cc(Oc2ccccc2/C=N\O)c1`, the AC50 under setting [1] was 6.51 µM [rising, partial curve].
On the same count and under the same terms, with `Cc1cc(C)c(NC(=O)C2CCCN2CCOC(=O)c2cccc([N+](=O)[O-])c2)c(C)c1` (configuration not stated) the figure was 16.4 µM [falling, single point]; with `OC[C@@H]1[C@@H](c2ccccc2)C(c2cccc(Cl)c2)=NN1c1ccccc1`, 29.1 µM [falling, single point]; with `Cc1cc(NC(=O)CC2CCCC2)ccc1Br`, 1.58 µM [rising, partial curve, poor fit].
`Cc1nn(-c2ccccc2)c(C)c1CNC(=O)c1ccc(S(=O)(=O)NCc2ccco2)cc1`: the concentration at half-maximal activity (AC50) under setting [1] is 29.1 µM [rising, single point].
On to `COC(=O)c1ccc(C2/C(=C(/O)c3ccc(OC)cc3)C(=O)C(=O)N2Cc2ccco2)cc1` (configuration not stated), for which the AC50 under setting [1] was 8.91 µM [falling, partial curve].
The same measure, in the same setting: with `CC(=O)N=C1SC2CS(=O)(=O)CC2N1Cc1ccc(C)cc1` (configuration not stated) the figure was 0.501 µM [rising, full curve, poor fit]; with `Cc1ccc(C(=O)NCN2CCN(c3ccc(F)cc3)CC2)cc1`, 25.9 µM [rising, single point]; with `Cc1cc(NC(=O)CSc2ccc(Cl)cc2)no1`, 10.3 µM [rising, partial curve, poor fit].
Still for that read-out and setting: with `CCOC(=O)c1cccc(N2C(=O)C3C4C=CC(CC4)C3C2=O)c1` (configuration not stated) the figure was 3.98 µM [falling, single point].
Regarding `O=C(O)c1ccccc1C(=O)Nc1nc(-c2ccccc2)cs1`, the AC50 under setting [1] is 11.2 µM [falling, partial curve].
As to `CCOC(=O)N1CCN(C(=O)C2CCN(C(=O)c3ccc([N+](=O)[O-])cc3)CC2)CC1`, the AC50 under setting [1] is 0.794 µM [rising, full curve, poor fit].
Still for that read-out and setting: with `C#CCOCCOCCOCCNc1nc(N2CCN(C(=O)CCCCCCCCCCNC(=O)Cn3cc(CCCCCN)nn3)CC2)nc(N2CCN(C(=O)CCCCCCCCCCNC(=O)Cn3cc(CCCCCN)nn3)CC2)n1` the figure was 5.17 µM [rising, partial curve, poor fit]; with `Cc1nc2ccccc2c2c1C(=O)N(C)C2=O`, 9.2 µM [falling, partial curve, poor fit]; with `Cc1nccc(-c2ccc(-n3cnc4ccccc43)cc2)n1`, 0.00517 µM [rising, full curve, poor fit].
Same read-out and setting: with `C#CCOCCOCCOCCNc1nc(N2CCN(C(=O)CCCCCCCCCCNC(=O)Cn3cc(C[C@@H](C)O)nn3)CC2)nc(N2CCN(C(=O)CCCCCCCCCCNC(=O)[C@@H](CCC(=O)O)n3cc(CCCCCN)nn3)CC2)n1` the figure was 2.59 µM [rising, partial curve, poor fit].
In the case of `Cc1ccccc1-c1nnc(SC(C)C(=O)NC2CCCC2)o1` (configuration not stated), the AC50 under setting [1] is 9.2 µM [rising, partial curve].
Regarding `CCC/C=C1/CCCOC(C(=O)NCc2ccc(C)o2)(C(F)(F)F)C1` (configuration not stated), the AC50 under setting [1] is 29.1 µM [falling, partial curve, poor fit].
The same measure, in the same setting: with `FC(F)(F)c1cccc(Cc2noc(CN3CCCC(CN4CCCC4)C3)n2)c1` (configuration not stated) the figure was 7.08 µM [falling, partial curve, poor fit].
